PubChem BioAssay AID1053208 | Peter MacCallum Cancer Centre, 2014

- Aim: 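Find knock-downs that sensitise mouse osteosarcoma cells to doxorubicin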 (primary screen)
- System: mouse osteosarcoma cells, early-passage culture from an engineered mouse model of fibroblastic bone tumour
- Reagent: siRNA pool against mouse genes, 40 nM
- Timing: about 120 h (48 h before drug, then 72 h with drug)
- Challenge: doxorubicin 100 nM for 72 h, roughly 30-40% inhibitory dose
- Read-out: 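Viability read as ATP luminescence after 72 h of 100 nM doxorubicin or none, duplicate wells averaged, scaled to non-targeting siRNA, then expressed as robust z-scores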
- Direction: viability z-score with doxorubicin and doxorubicin viability vs non-targeting: higher = more viable cells under doxorubicin; viability z-score without drug: higher = more viable cells with knock-down alone; z-score of drug to no-drug ratio: higher = less drug sensitisation by knock-down
- Call rule: 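a pool counts as active when its viability z-score with doxorubicin is -2 or below and its z-score without drug lies between -2 and 2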
Shown is one part, drawn at random, of about 17,000 reagents. 788 of them (4.7%) count as active. 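Calls rest on z-score classes alone; an extra cut-off of viability at most 70% of control was not applied to them.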 Reagents against one gene are numbered here. Reagent sequences are not shown.

The first 5 entries as a preview:
Gene | reagent | combined z-score class | viability z-score with doxorubicin | viability z-score without drug | z-score of drug to no-drug ratio | doxorubicin viability vs non-targeting | Call
Lyset (lysosomal enzyme trafficking factor) | 1 | no change with or without drug | -0.45 | 0.17 | -0.45 | 0.9 | inactive
Cd81 (CD81 antigen) | 1 | no change with or without drug | -1.01 | -1.35 | 0 | 0.85 | inactive
Ric8b (RIC8 guanine nucleotide exchange factor B) | 1 | no change with or without drug | -0.67 | 0.51 | -0.9 | 0.88 | inactive
Defa1 (defensin, alpha 1) | 1 | no change with or without drug | 0.22 | 0.84 | -0.22 | 0.96 | inactive
Creld2 (cysteine-rich with EGF-like domains 2) | 1 | no change with or without drug | -0.56 | 0.84 | -1.01 | 0.89 | inactive

The list itself, repeating the preview:
Gene | reagent | combined z-score class | viability z-score with doxorubicin | viability z-score without drug | z-score of drug to no-drug ratio | doxorubicin viability vs non-targeting | Call
Lyset (lysosomal enzyme trafficking factor) | 1 | no change with or without drug | -0.45 | 0.17 | -0.45 | 0.9 | inactive
Cd81 (CD81 antigen) | 1 | no change with or without drug | -1.01 | -1.35 | 0 | 0.85 | inactive
Ric8b (RIC8 guanine nucleotide exchange factor B) | 1 | no change with or without drug | -0.67 | 0.51 | -0.9 | 0.88 | inactive
Defa1 (defensin, alpha 1) | 1 | no change with or without drug | 0.22 | 0.84 | -0.22 | 0.96 | inactive
Creld2 (cysteine-rich with EGF-like domains 2) | 1 | no change with or without drug | -0.56 | 0.84 | -1.01 | 0.89 | inactive
Zfp41 (zinc finger protein 41) | 1 | no change with or without drug | 1.69 | 1.35 | 0.9 | 1.09 | inactive
Tfb2m (transcription factor B2, mitochondrial) | 1 | low cell count with doxorubicin only | -2.02 | -1.52 | -1.12 | 0.76 | active
Or5d47 (olfactory receptor family 5 subfamily D member 47) | 1 | no change with or without drug | 1.01 | 0.17 | 1.01 | 1.03 | inactive
Aspscr1 (ASPSCR1 tether for SLC2A4, UBX domain containing) | 1 | no change with or without drug | -1.12 | -0.51 | -0.79 | 0.84 | inactive
Alkbh3 (alkB homolog 3, alpha-ketoglutarate-dependent dioxygenase) | 1 | low cell count with doxorubicin only | -2.25 | -1.85 | -1.12 | 0.74 | active
Fmr1 (fragile X messenger ribonucleoprotein 1) | 1 | no change with or without drug | 0.22 | 0.51 | 0 | 0.96 | inactive
Or4c104 (olfactory receptor family 4 subfamily C member 104) | 1 | no change with or without drug | -1.35 | 0 | -1.35 | 0.82 | inactive
Ilf2 (interleukin enhancer binding factor 2) | 1 | no change with or without drug | 0 | -0.84 | 0.67 | 0.94 | inactive
Fry (FRY microtubule binding protein) | 1 | no change with or without drug | -1.35 | -0.84 | -0.79 | 0.82 | inactive
Fry (FRY microtubule binding protein) | 2 | no change with or without drug | -1.35 | -1.18 | -0.56 | 0.82 | inactive
Arrb2 (arrestin, beta 2) | 1 | no change with or without drug | -0.67 | 0.67 | -1.01 | 0.88 | inactive
Dennd6b (DENN domain containing 6B) | 1 | high cell count without drug only | -0.11 | 3.2 | -1.8 | 0.93 | inactive
Efhb (EF hand domain family, member B) | 1 | no change with or without drug | -0.11 | 0.51 | -0.34 | 0.93 | inactive
Abhd5 (abhydrolase domain containing 5) | 1 | no change with or without drug | 0.34 | -0.17 | 0.56 | 0.97 | inactive
Rarg (retinoic acid receptor, gamma) | 1 | no change with or without drug | 1.46 | 0.17 | 1.46 | 1.07 | inactive
Sh2d3c (SH2 domain containing 3C) | 1 | no change with or without drug | 0.45 | 0.34 | 0.34 | 0.98 | inactive
Slc22a6 | 1 | no change with or without drug | -0.9 | -0.34 | -0.67 | 0.86 | inactive
Snapc2 (small nuclear RNA activating complex, polypeptide 2) | 1 | no change with or without drug | -0.34 | 1.52 | -1.12 | 0.91 | inactive
Crls1 (cardiolipin synthase 1) | 1 | no change with or without drug | -1.24 | -0.17 | -1.12 | 0.83 | inactive
Pdxdc1 (pyridoxal-dependent decarboxylase domain containing 1) | 1 | no change with or without drug | 1.46 | 0.34 | 1.35 | 1.07 | inactive
Htr2a (5-hydroxytryptamine (serotonin) receptor 2A) | 1 | no change with or without drug | -0.79 | 0.51 | -1.01 | 0.87 | inactive
1700055D18Rik (RIKEN cDNA 1700055D18 gene) | 1 | no change with or without drug | 0.67 | 1.18 | 0 | 1 | inactive
Prg2 (proteoglycan 2, bone marrow) | 1 | no change with or without drug | 0.22 | -0.84 | 1.01 | 0.96 | inactive
Gpd1 (glycerol-3-phosphate dehydrogenase 1 (soluble)) | 1 | no change with or without drug | 1.57 | -0.17 | 1.91 | 1.08 | inactive
D930046H04Rik (RIKEN cDNA D930046H04 gene) | 1 | high cell count without drug only | -0.67 | 2.19 | -1.91 | 0.88 | inactive
Or51a6 (olfactory receptor family 51 subfamily A member 6) | 1 | low cell count with and without drug | -3.37 | -3.2 | -1.57 | 0.64 | inactive
Klra21 (killer cell lectin-like receptor subfamily A, member 21) | 1 | no change with or without drug | 0 | -0.51 | 0.45 | 0.94 | inactive
Slco1a6 | 1 | no change with or without drug | -0.45 | -1.18 | 0.45 | 0.9 | inactive
Pcnx4 (pecanex homolog 4) | 1 | no change with or without drug | -1.8 | 0.17 | -1.91 | 0.78 | inactive
Reep5 (receptor accessory protein 5) | 1 | high cell count without drug only | 0.67 | 2.19 | -0.56 | 1 | inactive
Or4f47 (olfactory receptor family 4 subfamily F member 47) | 1 | no change with or without drug | -0.56 | -0.84 | 0.11 | 0.89 | inactive
Tmem17 (transmembrane protein 17) | 1 | no change with or without drug | 0.9 | 0 | 1.01 | 1.02 | inactive
Dpy19l3 (dpy-19 like C-mannosyltransferase 3) | 1 | no change with or without drug | -0.67 | 0.17 | -0.67 | 0.88 | inactive
Itga11 (integrin alpha 11) | 1 | no change with or without drug | -1.57 | -0.84 | -1.01 | 0.8 | inactive
Gast (gastrin) | 1 | no change with or without drug | -0.22 | -0.34 | 0.11 | 0.92 | inactive
Gnb1l | 1 | no change with or without drug | -0.9 | -1.18 | 0 | 0.86 | inactive
Adgrb2 (adhesion G protein-coupled receptor B2) | 1 | no change with or without drug | -0.45 | -0.51 | 0 | 0.9 | inactive
Krtap9-3 (keratin associated protein 9-3) | 1 | no change with or without drug | -0.9 | 1.85 | -1.91 | 0.86 | inactive
Mrps5 (mitochondrial ribosomal protein S5) | 1 | no change with or without drug | -1.12 | -1.18 | -0.34 | 0.84 | inactive
Gpatch4 (G patch domain containing 4) | 1 | no change with or without drug | 0.9 | 0.51 | 0.67 | 1.02 | inactive
Or2q1 (olfactory receptor family 2 subfamily Q member 1) | 1 | no change with or without drug | -1.91 | -1.18 | -1.12 | 0.77 | inactive
Myom1 (myomesin 1) | 1 | no change with or without drug | 0 | -0.84 | 0.67 | 0.94 | inactive
Shfl (shiftless antiviral inhibitor of ribosomal frameshifting) | 1 | no change with or without drug | -1.12 | -1.01 | -0.45 | 0.84 | inactive
Pgrmc1 (progesterone receptor membrane component 1) | 1 | no change with or without drug | -0.22 | -1.18 | 0.79 | 0.92 | inactive
Dynlt4 (dynein light chain Tctex-type 4) | 1 | no change with or without drug | -0.45 | -0.84 | 0.22 | 0.9 | inactive
Atp6v0d2 (ATPase, H+ transporting, lysosomal V0 subunit D2) | 1 | no change with or without drug | 1.57 | 0.17 | 1.69 | 1.08 | inactive
Klrc1 (killer cell lectin-like receptor subfamily C, member 1) | 1 | no change with or without drug | 0.11 | -0.34 | 0.45 | 0.95 | inactive
Csad (cysteine sulfinic acid decarboxylase) | 1 | no change with or without drug | 1.35 | -0.51 | 1.91 | 1.06 | inactive
Serinc2 (serine incorporator 2) | 1 | no change with or without drug | -1.8 | 0 | -1.8 | 0.78 | inactive
Icos (inducible T cell co-stimulator) | 1 | no change with or without drug | -0.22 | 0.17 | -0.22 | 0.92 | inactive
Sec22c (SEC22 homolog C, vesicle trafficking protein) | 1 | no change with or without drug | 0.22 | 1.52 | -0.67 | 0.96 | inactive
Entr1 (endosome associated trafficking regulator 1) | 1 | no change with or without drug | -1.01 | -1.52 | 0.11 | 0.85 | inactive
Lrriq4 (leucine-rich repeats and IQ motif containing 4) | 1 | no change with or without drug | -1.12 | -0.17 | -1.01 | 0.84 | inactive
Laptm4a (lysosomal-associated protein transmembrane 4A) | 1 | low cell count with doxorubicin only | -2.92 | -0.84 | -2.47 | 0.68 | active
Cd79b (CD79B antigen) | 1 | no change with or without drug | 0.9 | -1.01 | 1.91 | 1.02 | inactive
Lgals6 (lectin, galactose binding, soluble 6) | 1 | no change with or without drug | 0.67 | 0.34 | 0.56 | 1 | inactive
Nipsnap3b (nipsnap homolog 3B) | 1 | high cell count with doxorubicin only | 2.02 | 1.18 | 1.35 | 1.12 | inactive
Bub3 (BUB3 mitotic checkpoint protein) | 1 | no change with or without drug | -0.45 | -1.18 | 0.45 | 0.9 | inactive
